Data taken from publication PMC12116911.
Results are given in words; binding and its absence hold for the method and conditions named. In cells and extracts the contact can be indirect. Some binding calls cover weakened binding; strength is not graded here. Tags and fused reporters may be left off the sequences shown.

By UniProt entry, the sequences of proteins in these tests, tags left out.
UniProt O95747: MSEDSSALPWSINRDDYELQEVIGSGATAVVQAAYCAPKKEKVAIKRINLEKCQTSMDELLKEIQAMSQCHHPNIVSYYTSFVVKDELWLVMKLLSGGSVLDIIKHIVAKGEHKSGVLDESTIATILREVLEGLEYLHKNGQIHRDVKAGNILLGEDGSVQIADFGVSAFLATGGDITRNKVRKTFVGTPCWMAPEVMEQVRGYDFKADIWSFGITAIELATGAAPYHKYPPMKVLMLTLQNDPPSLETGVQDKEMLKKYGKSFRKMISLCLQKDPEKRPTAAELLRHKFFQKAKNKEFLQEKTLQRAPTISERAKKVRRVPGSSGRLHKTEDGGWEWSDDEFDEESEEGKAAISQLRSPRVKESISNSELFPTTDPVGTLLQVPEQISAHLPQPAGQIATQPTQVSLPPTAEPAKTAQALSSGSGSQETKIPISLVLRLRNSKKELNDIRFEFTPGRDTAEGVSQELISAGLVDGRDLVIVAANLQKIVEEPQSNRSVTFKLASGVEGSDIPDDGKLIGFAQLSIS

Target: HA-tagged OXSR1 (oxidative stress responsive kinase 1) (human) (UniProt O95747)
Experiment: co-IP; HEK-293T cells transiently co-expressing HA- and V5-tagged proteins; lysis buffer 50 mM Tris-HCl pH 7.4, 150 mM NaCl, 2 mM MgCl2, 1% NP-40; anti-HA magnetic beads or anti-V5 agarose, 4 h at 4 °C; four washes; immunoblot

B1: V5-tagged SLC38A2 (protein, UniProt Q96QD8 1-506)
chain: MKKAEMGRFSISPDEDSSSYSSNSDFNYSYPTKQAALKSHYADVDPENQNFLLESNLGKKKYETEFHPGTTSFGMSVFNLSNAIVGSGILGLSYAMANTGIALFIILLTFVSIFSLYSVHLLLKTANEGGSLLYEQLGYKAFGLVGKLAASGSITMQNIGAMSSYLFIVKYELPLVIQALTNIEDKTGLWYLNGNYLVLLVSLVVILPLSLFRNLGYLGYTSGLSLLCMVFFLIVVICKKFQVPCPVEAALIINETINTTLTQPTALVPALSHNVTENDSCRPHYFIFNSQTVYAVPILIFSFVCHPAVLPIYEELKDRSRRRMMNVSKISFFAMFLMYLLAALFGYLTFYEHVESELLHTYSSILGTDILLLIVRLAVLMAVTLTVPVVIFPIRSSVTHLLCASKDFSWWRHSLITVSILAFTNLLVIFVPTIRDIFGFIGASAASMLIFILPSAFYIKLVKKEPMKSVQKIGALFFLLSGVLVMTGSMALIVLDWVHNAPGGGH
Q: B1 was tested. Which binding did it give?
A: binds
